Assay results published in US20250011798A1, “[…] PRODUCTION” (ModernaTX, Inc., priority 2021, published 2025).
At least one structure is not confirmed: it was looked up by name or label, or the drawing left a doubt.

Tested on: E. coli strains tolC::K3_amber (K3) and tolC::H342_amber (H342)
Test: Growth of transformed tolC::amber E. coli strains over 24 hours in media containing kanamycin or deoxycholate
Type: cell-based
Conditions: all strains (HisR or luciferase plasmid, both carrying a kanamycin-resistance marker), TBAF++ media, FIGS. 3B, 3D
Protocol: It was evaluated whether plasmid-borne expression of a mutant tRNA with an anticodon that is complementary to the tolC amber mutation would allow for expression of full-length TolC protein, and therefore allow the strain to grow in the presence of an otherwise lethal concentration of nalidixic acid (FIG. 2). In this case, a histidine tRNA, hisR, was modified with an anticodon loop that is complementary to the tolC amber STOP codon, UAG on RNA, which is encoded by TAG on DNA. Mutant E. coli strains were generated by introducing either a tolC::K3_amber (referred to as “K3”) or tolC::H342_amber (referred to as “H342”) amber mutation into the genome (FIG. 3A). Introduction of a STOP codon at an early codon of the open reading frame prevents the translation of non-functional TolC peptides with intact leader sequences, which would otherwise be translocated across the inner cell membrane into the periplasmic space or outer membrane. Each strain also contained codon-optimized tolC coding sequences. Both strains were transformed with a plasmid encoding either i) an amber suppressor tRNA that carries histidine (hisR), or ii) luciferase, as a control plasmid. Both plasmids carried a kanamycin-resistance marker to allow for plasmid maintenance during growth. […]

Compound: NC[C@H]1O[C@H](O[C@H]2[C@H](O)[C@@H](O[C@H]3O[C@H](CO)[C@@H](O)[C@H](N)[C@H]3O)[C@H](N)C[C@@H]2N)[C@H](O)[C@@H](O)[C@@H]1O [kanamycin]
- Growth of strains in the presence of kanamycin: grew
